Test results published in PMC10450662.
Results are given in words; binding and its absence hold for the method and conditions named. For some assays here: In cells and extracts the contact can be indirect. Some results given as binding are weak or reduced against the parent protein; the word gives no strength.

The chains behind the UniProt entries cited, without tags or fusion partners.
UniProt Q07335: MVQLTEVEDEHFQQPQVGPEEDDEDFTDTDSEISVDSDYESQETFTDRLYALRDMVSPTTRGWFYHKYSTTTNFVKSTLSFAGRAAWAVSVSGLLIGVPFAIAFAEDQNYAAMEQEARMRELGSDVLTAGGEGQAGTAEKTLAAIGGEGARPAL
UniProt P24391: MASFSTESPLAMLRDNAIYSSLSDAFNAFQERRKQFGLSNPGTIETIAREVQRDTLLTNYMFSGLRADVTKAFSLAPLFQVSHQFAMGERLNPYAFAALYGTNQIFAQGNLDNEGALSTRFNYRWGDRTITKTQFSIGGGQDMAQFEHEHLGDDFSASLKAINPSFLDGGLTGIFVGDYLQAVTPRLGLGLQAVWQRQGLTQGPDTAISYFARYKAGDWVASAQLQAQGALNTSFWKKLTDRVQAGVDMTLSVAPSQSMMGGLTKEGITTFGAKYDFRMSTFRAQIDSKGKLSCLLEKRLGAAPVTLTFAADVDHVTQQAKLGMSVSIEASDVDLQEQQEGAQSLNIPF
UniProt Q7SG90: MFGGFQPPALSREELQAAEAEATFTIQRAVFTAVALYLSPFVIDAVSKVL

Key:
[1] = biological target: Tom22 of Neurospora crassa with a hexahistidine tag (Neurospora crassa) (UniProt Q07335); assay: pull-down + SEC; His6-Tom22 held on a nickel-NTA column from outer membrane vesicles of N. crassa GR-107 solubilised in 1% GDN (10 mM MOPS pH 7.0, 50 mM potassium acetate, 50 mM imidazole), eluted with 300 mM imidazole, then Superdex 200 Increase; subunits seen by SDS-PAGE with Coomassie staining
[2] = biological target: Tom40 of the Neurospora crassa TOM complex (Neurospora crassa) (UniProt P24391); assay: cryo-EM structure; TOM core complex dimer in GDN, co-purified from N. crassa, C2 symmetry, 3.32 Å; 50 mM KPO4 pH 8.0, 50 mM KCl, 1 mM EDTA, 1 mM TCEP, 0.02% GDN; both purified

binding [1]: binds | binding [2]: binds
Substance: Tom5 of the Neurospora crassa TOM complex (from UniProt Q7SG90 1-50)
